Experimental data: article PMC9122495, “Seipin transmembrane segments critically function in triglyceride nucleation and lipid droplet budding from the membrane” (eLife, 2022)
Results are given in words; binding and its absence hold for the method and conditions named. Some entries that bind do so weakly or less than the wild type. Tags and fused reporters may be left off the sequences shown.

By UniProt entry, the sequences of proteins in these tests, tags left out. Residues count along the entry.
UniProt Q96G97, residues 1-310: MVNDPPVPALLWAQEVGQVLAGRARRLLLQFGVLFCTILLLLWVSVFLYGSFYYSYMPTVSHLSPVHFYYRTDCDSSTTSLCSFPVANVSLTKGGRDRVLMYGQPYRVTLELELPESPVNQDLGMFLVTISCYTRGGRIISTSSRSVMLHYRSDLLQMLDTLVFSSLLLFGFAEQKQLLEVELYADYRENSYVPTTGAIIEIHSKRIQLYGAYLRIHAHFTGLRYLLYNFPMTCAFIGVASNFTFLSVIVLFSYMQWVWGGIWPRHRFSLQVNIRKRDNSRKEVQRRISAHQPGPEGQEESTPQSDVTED

Biological target: T1, LDAF1-FLAG (human) (UniProt Q96B96)
T1 sequence: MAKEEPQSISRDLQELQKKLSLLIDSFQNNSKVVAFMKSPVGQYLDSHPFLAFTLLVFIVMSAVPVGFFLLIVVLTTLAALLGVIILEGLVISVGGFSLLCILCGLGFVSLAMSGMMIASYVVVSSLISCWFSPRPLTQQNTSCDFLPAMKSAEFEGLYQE
Experiment: co-purification (anti-FLAG affinity, then SEC); LDAF1-FLAG and seipin (1–310) co-expressed in Expi293F; cells treated with DGAT1 and DGAT2 inhibitors and Triacsin C; membranes solubilised in 1% LMNG; anti-FLAG M2 resin, eluted with 3xFLAG peptide; Superose 6; 4°C; seipin then seen by cryo-EM

seipin (1–310) (from UniProt Q96G97 1-310) (domain or fragment)
binding: binds
